Measured values: PubChem BioAssay AID651965 (National Center for Advancing Translational Sciences (NCATS), 2013)
In all, about 340,000 compounds went through this assay and about 6,400 (1.9%) were called active. Only results without a clear call are listed here; the source files them as inconclusive. Calls come from the whole dose curve; as a rule, active = well fitted falling curve with a large enough effect; inconclusive = small, poorly fitted or top-dose-only effect; inactive = no such curve, though single readings can be large or run the other way.

The chains behind the UniProt entries cited, without tags or fusion partners.
UniProt P80244, whole entry: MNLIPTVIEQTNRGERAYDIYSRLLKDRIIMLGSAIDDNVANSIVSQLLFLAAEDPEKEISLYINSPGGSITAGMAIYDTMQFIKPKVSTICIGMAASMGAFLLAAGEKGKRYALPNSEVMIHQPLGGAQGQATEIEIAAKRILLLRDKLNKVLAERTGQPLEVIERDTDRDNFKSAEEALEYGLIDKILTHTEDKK

What follows are compounds tested against ATP-dependent Clp protease proteolytic subunit (Bacillus subtilis (strain 168)) (UniProt P80244) (assay: qHTS Assay for Activators of ClpP). Settings: purified B. subtilis ClpP, FRET peptide cleavage, 20 min.
Note: the source files actives as falling curves though it sought activators and does not explain the sign; nearly all actives have a fitted effect of over 65% in size.
Potency is the fitted concentration of half-maximal effect.

Row | Compound | Potency
1 | O=C(OCCCN1CCCC1)C(O)(c1ccccc1)C1CCCCC1 (stereo unspecified) | inconclusive: 25.1 µM
